Experimental data published in publication doi:10.1101/2024.10.01.616059 (bioRxiv, 2024).
These are yes or no findings as the source states them, for the method shown. For some of these results: Binding seen in cells or lysates may run through a third protein. Some results given as binding are weak or reduced against the parent protein; the word gives no strength. Values belong to the binder of their own block, whether it stands above or below them.

Key:
[1] = target: T1, phosphoribosyl pyrophosphate synthetase 2 (PRPS2), mouse, endogenous (mouse (endogenous in NIH3T3 and C57BL/6 tissue)) (UniProt Q9CS42); assay: SEC; native lysate of NIH3T3 P1/AP2 KO cells (Supplementary Fig.7d); fractions immunoblotted
T1 sequence: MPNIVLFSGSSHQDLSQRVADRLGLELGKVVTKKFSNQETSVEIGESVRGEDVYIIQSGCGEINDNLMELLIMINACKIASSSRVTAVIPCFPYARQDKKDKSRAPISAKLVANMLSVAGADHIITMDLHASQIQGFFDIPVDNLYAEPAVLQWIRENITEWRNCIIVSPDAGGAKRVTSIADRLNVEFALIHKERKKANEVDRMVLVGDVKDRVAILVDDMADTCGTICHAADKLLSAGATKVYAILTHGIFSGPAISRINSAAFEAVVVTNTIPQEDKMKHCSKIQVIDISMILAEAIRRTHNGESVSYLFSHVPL

[2] = target: T2, phosphoribosyl pyrophosphate synthetase 1 (PRPS1), mouse, endogenous (mouse (endogenous in NIH3T3 and C57BL/6 tissue)) (UniProt Q9D7G0); assay: co-IP; PRPS1 pulldown in NIH3T3 P2/AP2 KO cells (Supplementary Fig.7b); how PRPS1 was captured is not told
T2 sequence: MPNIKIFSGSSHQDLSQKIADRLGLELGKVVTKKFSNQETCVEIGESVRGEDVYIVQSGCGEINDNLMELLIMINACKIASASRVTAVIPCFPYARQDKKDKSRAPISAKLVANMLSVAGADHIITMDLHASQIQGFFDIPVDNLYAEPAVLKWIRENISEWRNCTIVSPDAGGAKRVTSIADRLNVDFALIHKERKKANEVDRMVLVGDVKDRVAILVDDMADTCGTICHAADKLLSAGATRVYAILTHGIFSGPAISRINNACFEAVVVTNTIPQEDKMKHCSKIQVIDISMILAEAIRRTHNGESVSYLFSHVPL

[3] = target: PRPS-associated protein 1 (PRPSAP1), mouse, endogenous (mouse (endogenous in NIH3T3 and C57BL/6 tissue)) (UniProt Q9D0M1); assay: SEC; native whole-cell lysate of NIH3T3 P2/AP2 KO cells on Superose 6 Increase 3.2/300; fractions immunoblotted
[4] = target: T2, phosphoribosyl pyrophosphate synthetase 1 (PRPS1), mouse, endogenous (mouse (endogenous in NIH3T3 and C57BL/6 tissue)); assay: condition: only in P2/AP2 KO cells (without PRPS2 and PRPSAP2); SEC; native whole-cell lysate of NIH3T3 P2/AP2 KO cells on Superose 6 Increase 3.2/300; fractions immunoblotted
[5] = target: PRPSAP1-ALFA, short isoform of AP1 (exogenous) (UniProt Q14558); assay: SEC; native lysate of NIH3T3 PRPS1-only (P2/AP1/AP2 KO) cells overexpressing AP1 (Supplementary Fig.7a); fractions immunoblotted
[6] = target: T1, phosphoribosyl pyrophosphate synthetase 2 (PRPS2), mouse, endogenous (mouse (endogenous in NIH3T3 and C57BL/6 tissue)); assay: SEC; native whole-cell lysates of NIH3T3 AP1/AP2 KO cells stably expressing one exogenous AP1 or AP2 isoform or AP1/AP2 chimera, on Superose 6 Increase 3.2/300; fractions immunoblotted
[7] = target: T2, phosphoribosyl pyrophosphate synthetase 1 (PRPS1), mouse, endogenous (mouse (endogenous in NIH3T3 and C57BL/6 tissue)); assay: SEC; native lysate of NIH3T3 P2/AP1 KO cells (Supplementary Fig.7c); fractions immunoblotted
[8] = target: T2, phosphoribosyl pyrophosphate synthetase 1 (PRPS1), mouse, endogenous (mouse (endogenous in NIH3T3 and C57BL/6 tissue)); assay: SEC; native lysate of kidney of 12-week-old male C57BL/6 mice on Superose 6 Increase 3.2/300; fractions immunoblotted
[9] = target: T2, phosphoribosyl pyrophosphate synthetase 1 (PRPS1), mouse, endogenous (mouse (endogenous in NIH3T3 and C57BL/6 tissue)); assay: SEC; native whole cell lysate of parental NIH3T3 on Superose 6 Increase 3.2/300; fractions immunoblotted; internal standards of known native mass
[10] = target: T3, endogenous PRPS1-mNG11-ALFA (knock-in) (mouse (endogenous in NIH3T3)) (UniProt Q9D7G0); assay: co-IP; ALFA-tag pulldown: lysate of NIH3T3 knock-in cells with endogenous PRPS1-ALFA on anti-ALFA nanobody agarose (ALFA Selector ST), 1 h, 4 °C; washes with 0.5 M NaCl, 0.5% Triton X-100
T3 sequence: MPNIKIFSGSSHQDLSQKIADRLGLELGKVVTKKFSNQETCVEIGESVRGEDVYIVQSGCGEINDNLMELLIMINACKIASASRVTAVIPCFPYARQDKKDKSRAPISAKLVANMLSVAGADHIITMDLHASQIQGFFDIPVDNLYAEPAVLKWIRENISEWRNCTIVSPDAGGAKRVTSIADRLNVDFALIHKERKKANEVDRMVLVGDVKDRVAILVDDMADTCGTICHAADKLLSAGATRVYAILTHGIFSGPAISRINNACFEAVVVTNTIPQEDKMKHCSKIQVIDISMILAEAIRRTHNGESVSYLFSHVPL

[11] = target: T2, phosphoribosyl pyrophosphate synthetase 1 (PRPS1), mouse, endogenous (mouse (endogenous in NIH3T3 and C57BL/6 tissue)); assay: SEC; native whole-cell lysate of NIH3T3 AP1/AP2 KO cells on Yarra SEC-2000 (1 kDa to 300 kDa); fractions immunoblotted
[12] = target: T2, phosphoribosyl pyrophosphate synthetase 1 (PRPS1), mouse, endogenous (mouse (endogenous in NIH3T3 and C57BL/6 tissue)); assay: SEC; native lysate of NIH3T3 P2/AP1/AP2 KO cells re-expressing exogenous PRPS2 (Supplementary Fig.6h); fractions immunoblotted
[13] = target: T4, phosphoribosyl pyrophosphate synthetase 1 (PRPS1), human, endogenous (human (endogenous in HEK293T)) (UniProt P60891); assay: SEC; native lysate of HEK293T cells fractionated by SEC; fractions immunoblotted (Supplementary Fig.5f)
T4 sequence: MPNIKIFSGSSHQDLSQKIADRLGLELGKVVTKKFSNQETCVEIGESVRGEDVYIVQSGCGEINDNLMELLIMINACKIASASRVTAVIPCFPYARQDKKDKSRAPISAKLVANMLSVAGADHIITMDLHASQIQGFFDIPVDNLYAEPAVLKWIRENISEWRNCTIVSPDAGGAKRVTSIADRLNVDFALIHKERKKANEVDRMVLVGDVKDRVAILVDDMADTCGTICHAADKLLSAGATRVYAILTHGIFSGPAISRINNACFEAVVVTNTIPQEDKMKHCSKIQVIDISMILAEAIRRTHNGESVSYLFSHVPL

binding [1]: binds
binding [2]: binds weakly
binding [3]: binds
binding [4]: no binding
B1: PRPS-associated protein 1 (PRPSAP1), mouse, endogenous (protein, UniProt Q9D0M1 1-356)
chain: MNAARTGYRVFSANSTAACTELAKRITERLGAELGKSVVYQETNGETRVEIKESVRGQDIFIIQTIPRDVNTAVMELLIMAYALKTACARNIIGVIPYFPYSKQSKMRKRGSIVCKLLASMLAKAGLTHIITMDLHQKEIQGFFSFPVDNLRASPFLLQYIQEEIPNYRNAVIVAKSPDAAKRAQSYAERLRLGLAVIHGEAQCTELDMDDGRHSPPMVKNATVHPGLELPLMMAKEKPPITVVGDVGGRIAIIVDDIIDDVESFVAAAEILKERGAYKIYVMATHGILSAEAPRLIEESPIDEVVVTNTVPHELQKLQCPKIKTVDISLILSEAIRRIHNGESMAYLFRNITVDD

binding [5]: binds
binding [6]: binds
B2: PRPSAP1-ALFA, short isoform of AP1 (exogenous) (protein, UniProt Q14558 1-356)
chain: MNAARTGYRVFSANSTAACTELAKRITERLGAELGKSVVYQETNGETRVEIKESVRGQDIFIIQTIPRDVNTAVMELLIMAYALKTACARNIIGVIPYFPYSKQSKMRKRGSIVCKLLASMLAKAGLTHIITMDLHQKEIQGFFSFPVDNLRASPFLLQYIQEEIPNYRNAVIVAKSPDAAKRAQSYAERLRLGLAVIHGEAQCTELDMDDGRHSPPMVKNATVHPGLELPLMMAKEKPPITVVGDVGGRIAIIVDDIIDDVESFVAAAEILKERGAYKIYVMATHGILSAEAPRLIEESSVDEVVVTNTVPHEVQKLQCPKIKTVDISLILSEAIRRIHNGESMAYLFRNITVDD

binding [7]: binds
binding [8]: binds
binding [9]: binds
binding [10]: binds
B3: PRPS-associated protein 2 (PRPSAP2), mouse, endogenous (protein, UniProt Q8R574 1-369)
chain: MFCVAPPELETKMNITKGGLVLFSANSNSSCMELSKKIAERLGVEMGKVQVYQEPNRETRVQIQESVRGKDVFIIQTISKDVNTTIMELLIMVYACKTSCAKSIIGVIPYFPYSKQCKMRKRGSIVSKLLASMMCKAGLTHLITMDLHQKEIQGFFNIPVDNLRASPFLLQYIQEEIPDYRNAVIVAKSPASAKRAQSFAERLRLGIAVIHGEAQDAESDLVDGRHSPPMVRSVAAIHPSLEIPMLIPKEKPPITVVGDVGGRIAIIVDDIIDDVDSFLAAAETLKERGAYKIFVMATHGLLSSDAPRLIEESAIDEVVVTNTIPHEIQKLQCPKIKTVDISMILSEAIRRIHNGESMSYLFRNIGLDD

binding [8]: binds
binding [11]: binds
binding [9]: binds
binding [10]: binds
B4: phosphoribosyl pyrophosphate synthetase 2 (PRPS2), mouse, endogenous (enzyme, UniProt Q9CS42 1-318, looked up)
chain: MPNIVLFSGSSHQDLSQRVADRLGLELGKVVTKKFSNQETSVEIGESVRGEDVYIIQSGCGEINDNLMELLIMINACKIASSSRVTAVIPCFPYARQDKKDKSRAPISAKLVANMLSVAGADHIITMDLHASQIQGFFDIPVDNLYAEPAVLQWIRENITEWRNCIIVSPDAGGAKRVTSIADRLNVEFALIHKERKKANEVDRMVLVGDVKDRVAILVDDMADTCGTICHAADKLLSAGATKVYAILTHGIFSGPAISRINSAAFEAVVVTNTIPQEDKMKHCSKIQVIDISMILAEAIRRTHNGESVSYLFSHVPL
notes: PRPS2, mouse, endogenous protein of NIH3T3 cells and mouse tissue; also called P2; source: endogenous, NIH3T3 (parental and CRISPR knockout clones), native lysate; endogenous, C57BL/6 mouse kidney, native lysate

binding [12]: binds
B5: exogenous PRPS2 re-expressed in P2/AP1/AP2 KO cells (enzyme, UniProt Q9CS42 1-318)
chain: MPNIVLFSGSSHQDLSQRVADRLGLELGKVVTKKFSNQETSVEIGESVRGEDVYIIQSGCGEINDNLMELLIMINACKIASSSRVTAVIPCFPYARQDKKDKSRAPISAKLVANMLSVAGADHIITMDLHASQIQGFFDIPVDNLYAEPAVLQWIRENITEWRNCIIVSPDAGGAKRVTSIADRLNVEFALIHKERKKANEVDRMVLVGDVKDRVAILVDDMADTCGTICHAADKLLSAGATKVYAILTHGIFSGPAISRINSAAFEAVVVTNTIPQEDKMKHCSKIQVIDISMILAEAIRRTHNGESVSYLFSHVPL

binding [13]: binds
B6: phosphoribosyl pyrophosphate synthetase 2 (PRPS2), human, endogenous (enzyme, UniProt P11908 1-318)
chain: MPNIVLFSGSSHQDLSQRVADRLGLELGKVVTKKFSNQETSVEIGESVRGEDVYIIQSGCGEINDNLMELLIMINACKIASSSRVTAVIPCFPYARQDKKDKSRAPISAKLVANMLSVAGADHIITMDLHASQIQGFFDIPVDNLYAEPAVLQWIRENIAEWKNCIIVSPDAGGAKRVTSIADRLNVEFALIHKERKKANEVDRMVLVGDVKDRVAILVDDMADTCGTICHAADKLLSAGATKVYAILTHGIFSGPAISRINNAAFEAVVVTNTIPQEDKMKHCTKIQVIDISMILAEAIRRTHNGESVSYLFSHVPL
